Test results as given in the supplement of paper PMC4604168 (melanoma cell lines).
This is one part of the list. Many values rest on one well or one pass, so single values are uncertain.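 The apoptosis fraction was the count of cleaved-PARP antibody-stained nuclei relative to all DNA-stained nuclei, imaged in 1,536-well plates. Screening doses were set so most cells survived, and baseline and induced cleaved-PARP levels vary greatly across cell lines.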

What follows are compounds tested on SkMel30 (assay: cleaved PARP positive nuclei fraction relative to DMSO control; melanoma cells; higher = more apoptosis). Details: library dose: low library concentration; 72 h.

| SMILES | cleaved PARP positive nuclei fraction [%] |
| --- | --- |
| Cc1cc(Nc2cc(N3CCN(C)CC3)nc(Sc3ccc(NC(=O)C4CC4)cc3)n2)n[nH]1 [Tozasertib] + Cc1cc(Nc2cc(N3CCN(C)CC3)nc(/C=C/c3ccccc3)n2)n[nH]1 [ENMD2076] (first compound 0.006 µM, partner dose 0.04 µM) | 97.8 |
| O=C(Nc1cc(C(F)(F)F)cc(C(F)(F)F)c1)c1cc(Cl)ccc1O + C[C@]1(c2nc3c(C(N)=O)cccc3[nH]2)CCCN1 [Veliparib] (first compound 0.016 µM, partner dose 1.4 µM) | 74.9 |
| O=C(Nc1cc(C(F)(F)F)cc(C(F)(F)F)c1)c1cc(Cl)ccc1O + Nc1ncn([C@H]2C[C@H](O)[C@@H](CO)O2)c(=O)n1 [decitabine] (first compound 0.016 µM, partner dose 0.1 µM) | 84.4 |
| CC[C@]1(O)C[C@H]2CN(CCc3c([nH]c4ccccc34)[C@@](C(=O)OC)(c3cc4c(cc3OC)N(C=O)[C@H]3[C@@](O)(C(=O)OC)[C@H](OC(C)=O)[C@]5(CC)C=CCN6CC[C@]43[C@@H]65)C2)C1 [vincristine] + Cn1c(Nc2ccc(C(F)(F)F)cc2)nc2cc(Oc3ccnc(-c4ncc(C(F)(F)F)[nH]4)c3)ccc21 [CHIR265] (first compound 0.0001 µM, partner dose 0.08 µM) | 221 |
| Cc1cc(Nc2cc(N3CCN(C)CC3)nc(Sc3ccc(NC(=O)C4CC4)cc3)n2)n[nH]1 [Tozasertib] + N#CC[C@H](C1CCCC1)n1cc(-c2ncnc3[nH]ccc23)cn1 [ruxolitinib] (first compound 0.006 µM, partner dose 1 µM) | 65.4 |
